The target of assay [1] is PX-RICS (ARHGAP32 isoform 1) (mouse (endogenous in mouse cortical neurons)) (UniProt Q811P8). In words: co-IP; mouse cortical neurons solubilized with 1% digitonin, linear sucrose density gradient (10-40%) ultracentrifugation; fractions 6, 7 and 8 (>440 kDa) pooled and immunoprecipitated with anti-PX-RICS antibody; immunoblotting. A general note: Immunoblotting shows a protein as a band on a membrane.

By UniProt entry, the sequences of proteins in these tests, tags left out.
UniProt Q811P8: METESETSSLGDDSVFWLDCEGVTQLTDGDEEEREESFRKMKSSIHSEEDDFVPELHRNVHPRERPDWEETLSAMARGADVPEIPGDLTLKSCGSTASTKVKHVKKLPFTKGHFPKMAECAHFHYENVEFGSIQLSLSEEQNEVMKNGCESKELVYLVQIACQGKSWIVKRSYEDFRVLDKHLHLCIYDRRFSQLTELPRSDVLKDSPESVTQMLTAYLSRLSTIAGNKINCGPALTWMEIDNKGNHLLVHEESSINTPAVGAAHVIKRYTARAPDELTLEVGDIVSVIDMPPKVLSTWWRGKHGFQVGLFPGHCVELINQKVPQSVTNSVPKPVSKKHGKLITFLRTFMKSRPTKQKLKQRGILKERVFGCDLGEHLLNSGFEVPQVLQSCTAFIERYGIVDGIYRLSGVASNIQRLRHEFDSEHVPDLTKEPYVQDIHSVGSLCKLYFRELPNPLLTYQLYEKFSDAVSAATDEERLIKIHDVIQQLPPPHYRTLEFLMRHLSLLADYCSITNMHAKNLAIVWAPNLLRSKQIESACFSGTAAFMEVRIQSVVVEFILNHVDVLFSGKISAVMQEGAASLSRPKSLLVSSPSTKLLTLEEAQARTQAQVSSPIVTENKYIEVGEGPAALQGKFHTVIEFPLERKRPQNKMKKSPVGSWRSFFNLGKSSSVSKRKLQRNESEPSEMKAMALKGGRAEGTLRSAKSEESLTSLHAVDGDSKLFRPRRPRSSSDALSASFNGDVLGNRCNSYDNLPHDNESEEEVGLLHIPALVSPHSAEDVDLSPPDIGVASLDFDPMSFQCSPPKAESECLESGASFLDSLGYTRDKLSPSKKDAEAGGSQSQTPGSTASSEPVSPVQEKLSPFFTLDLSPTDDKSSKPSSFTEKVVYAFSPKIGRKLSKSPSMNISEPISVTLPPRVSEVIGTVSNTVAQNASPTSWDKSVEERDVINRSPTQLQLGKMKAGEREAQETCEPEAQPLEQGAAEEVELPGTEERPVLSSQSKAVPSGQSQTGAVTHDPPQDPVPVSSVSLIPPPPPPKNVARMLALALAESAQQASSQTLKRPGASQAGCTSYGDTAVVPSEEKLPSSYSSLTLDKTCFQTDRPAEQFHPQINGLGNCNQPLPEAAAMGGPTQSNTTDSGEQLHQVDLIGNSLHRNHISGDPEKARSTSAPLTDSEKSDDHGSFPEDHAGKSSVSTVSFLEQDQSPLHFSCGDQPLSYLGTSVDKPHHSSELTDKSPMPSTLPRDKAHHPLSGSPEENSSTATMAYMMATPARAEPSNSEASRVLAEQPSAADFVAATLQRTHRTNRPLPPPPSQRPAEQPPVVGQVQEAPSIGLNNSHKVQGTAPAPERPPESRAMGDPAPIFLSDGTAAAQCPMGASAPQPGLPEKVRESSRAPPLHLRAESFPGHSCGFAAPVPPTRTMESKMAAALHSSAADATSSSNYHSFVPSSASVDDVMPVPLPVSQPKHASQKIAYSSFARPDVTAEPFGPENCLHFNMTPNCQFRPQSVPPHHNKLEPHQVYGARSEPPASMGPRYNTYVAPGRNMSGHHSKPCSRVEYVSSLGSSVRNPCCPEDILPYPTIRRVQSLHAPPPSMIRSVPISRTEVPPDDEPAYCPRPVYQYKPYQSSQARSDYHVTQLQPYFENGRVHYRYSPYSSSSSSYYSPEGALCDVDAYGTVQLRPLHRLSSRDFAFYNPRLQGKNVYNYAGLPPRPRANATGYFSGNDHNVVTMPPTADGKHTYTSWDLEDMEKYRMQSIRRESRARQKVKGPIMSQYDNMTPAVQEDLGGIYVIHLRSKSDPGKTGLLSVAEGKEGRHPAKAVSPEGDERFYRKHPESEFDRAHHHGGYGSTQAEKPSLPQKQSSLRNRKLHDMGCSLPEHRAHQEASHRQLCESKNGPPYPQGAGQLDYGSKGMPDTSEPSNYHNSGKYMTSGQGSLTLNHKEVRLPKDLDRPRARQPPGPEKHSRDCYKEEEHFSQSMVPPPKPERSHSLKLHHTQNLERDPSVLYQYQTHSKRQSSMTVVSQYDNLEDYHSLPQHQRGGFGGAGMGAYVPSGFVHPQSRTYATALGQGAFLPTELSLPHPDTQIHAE
UniProt P63101: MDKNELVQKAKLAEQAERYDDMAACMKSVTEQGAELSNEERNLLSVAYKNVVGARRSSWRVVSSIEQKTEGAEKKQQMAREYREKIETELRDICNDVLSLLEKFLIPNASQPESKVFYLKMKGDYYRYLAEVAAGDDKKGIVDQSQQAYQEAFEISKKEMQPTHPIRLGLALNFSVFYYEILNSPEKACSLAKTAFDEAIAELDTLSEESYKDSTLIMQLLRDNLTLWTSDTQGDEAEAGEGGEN
UniProt O08788: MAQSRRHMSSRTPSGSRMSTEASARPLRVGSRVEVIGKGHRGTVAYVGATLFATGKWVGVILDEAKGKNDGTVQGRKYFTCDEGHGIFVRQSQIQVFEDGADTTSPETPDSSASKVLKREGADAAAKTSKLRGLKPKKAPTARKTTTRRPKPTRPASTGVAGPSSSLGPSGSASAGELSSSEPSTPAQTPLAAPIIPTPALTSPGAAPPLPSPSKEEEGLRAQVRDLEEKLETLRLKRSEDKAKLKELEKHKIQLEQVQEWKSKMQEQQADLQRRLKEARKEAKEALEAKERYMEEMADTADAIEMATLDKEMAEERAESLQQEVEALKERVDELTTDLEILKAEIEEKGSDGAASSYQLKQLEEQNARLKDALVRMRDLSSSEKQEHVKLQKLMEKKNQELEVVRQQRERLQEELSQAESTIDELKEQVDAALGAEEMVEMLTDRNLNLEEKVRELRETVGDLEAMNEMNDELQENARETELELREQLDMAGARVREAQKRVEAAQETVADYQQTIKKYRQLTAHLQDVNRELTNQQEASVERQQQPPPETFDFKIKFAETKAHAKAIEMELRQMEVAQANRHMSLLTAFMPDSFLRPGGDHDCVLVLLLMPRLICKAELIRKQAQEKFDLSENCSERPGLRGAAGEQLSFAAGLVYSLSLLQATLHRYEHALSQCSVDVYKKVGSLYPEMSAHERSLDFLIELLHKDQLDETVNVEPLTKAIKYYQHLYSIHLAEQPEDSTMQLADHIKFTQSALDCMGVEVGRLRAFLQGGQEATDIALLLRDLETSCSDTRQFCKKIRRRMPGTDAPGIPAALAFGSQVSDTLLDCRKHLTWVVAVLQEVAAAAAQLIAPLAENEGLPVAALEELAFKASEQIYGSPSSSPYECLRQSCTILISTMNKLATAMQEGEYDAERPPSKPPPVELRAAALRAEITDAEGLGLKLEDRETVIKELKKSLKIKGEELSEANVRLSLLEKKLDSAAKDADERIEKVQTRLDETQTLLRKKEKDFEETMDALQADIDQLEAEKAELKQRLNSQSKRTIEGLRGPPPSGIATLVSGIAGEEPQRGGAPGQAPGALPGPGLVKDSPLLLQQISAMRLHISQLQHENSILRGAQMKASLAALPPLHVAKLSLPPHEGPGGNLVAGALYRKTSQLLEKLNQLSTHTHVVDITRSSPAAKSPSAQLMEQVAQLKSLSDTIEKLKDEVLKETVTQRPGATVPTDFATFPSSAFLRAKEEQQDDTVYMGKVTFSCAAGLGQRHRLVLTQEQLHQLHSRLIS
UniProt Q9DCD6: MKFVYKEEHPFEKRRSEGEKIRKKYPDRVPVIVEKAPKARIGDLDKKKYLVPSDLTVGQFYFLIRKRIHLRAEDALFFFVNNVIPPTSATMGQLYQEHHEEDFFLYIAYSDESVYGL

For assay [2] the target is unchanged. In words: co-IP; mouse cortical neurons (14 DIV) lysed in lysis buffer T (10 mM Tris-HCl pH 6.8, 140 mM NaCl, 1 mM EDTA, 1% Triton X-100); precleared lysate with 5 ug of the indicated antibody 1 h at 4 °C, protein A-Sepharose; immunoblotting.
Assay [3] concerns the target T1, γ2 subunit of the γ-aminobutyric acid type A receptor (GABAAR) (mouse (endogenous in mouse cortical neurons)) (UniProt P22723).
T1 sequence: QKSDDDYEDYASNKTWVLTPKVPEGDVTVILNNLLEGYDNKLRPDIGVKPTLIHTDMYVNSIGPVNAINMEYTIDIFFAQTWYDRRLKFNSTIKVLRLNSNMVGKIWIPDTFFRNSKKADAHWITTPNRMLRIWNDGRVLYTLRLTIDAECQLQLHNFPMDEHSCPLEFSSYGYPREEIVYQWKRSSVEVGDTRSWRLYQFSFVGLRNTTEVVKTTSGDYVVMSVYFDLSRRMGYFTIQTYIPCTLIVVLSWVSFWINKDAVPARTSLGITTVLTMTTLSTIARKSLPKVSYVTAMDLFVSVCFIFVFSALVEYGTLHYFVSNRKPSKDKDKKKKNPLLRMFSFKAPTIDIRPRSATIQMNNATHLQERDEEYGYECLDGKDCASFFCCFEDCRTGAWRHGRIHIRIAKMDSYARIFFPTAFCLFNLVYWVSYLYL
Described as above.

Our source for the binding values is publication PMC4799364.

Results are given in words; binding and its absence hold for the method and conditions named. In cells and extracts the contact can be indirect. Some binding calls cover weakened binding; strength is not graded here.

Take 14-3-3ζ (from UniProt P63101 1-245): the binding entry in assay [1] is listed as “binds”.
Still for that read-out and setting: the entry for dynactin1 (from UniProt O08788 1-1281) is “binds”.
In the case of “GABA type A receptor (GABAAR)-associated protein (GABARAP) (from UniProt Q9DCD6 1-117)”, the binding entry in assay [1], in assay [2] and in assay [3] was “binds” in each case.

B1: 14-3-3θ (protein, UniProt P68254 1-245)
chain: MEKTELIQKAKLAEQAERYDDMATCMKAVTEQGAELSNEERNLLSVAYKNVVGGRRSAWRVISSIEQKTDTSDKKLQLIKDYREKVESELRSICTTVLELLDKYLIANATNPESKVFYLKMKGDYFRYLAEVACGDDRKQTIENSQGAYQEAFDISKKEMQPTHPIRLGLALNFSVFYYEILNNPELACTLAKTAFDEAIAELDTLNEDSYKDSTLIMQLLRDNLTLWTSDSAGEECDAAEGAEN
B1: the binding result in assay [1] is reported as “binds”.
